Test results from paper PMC11508440.
Results are given in words; binding and its absence hold for the method and conditions named. In cells and extracts the contact can be indirect. Some results given as binding are weak or reduced against the parent protein; the word gives no strength.

Sequences of proteins named here, by UniProt entry; tags and fusion partners are left off.
UniProt Q12983: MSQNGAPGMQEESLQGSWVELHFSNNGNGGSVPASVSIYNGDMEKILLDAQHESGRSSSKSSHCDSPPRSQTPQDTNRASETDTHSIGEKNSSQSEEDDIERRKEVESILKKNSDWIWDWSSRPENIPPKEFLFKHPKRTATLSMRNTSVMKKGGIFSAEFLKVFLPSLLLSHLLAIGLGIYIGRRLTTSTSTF
UniProt Q16665: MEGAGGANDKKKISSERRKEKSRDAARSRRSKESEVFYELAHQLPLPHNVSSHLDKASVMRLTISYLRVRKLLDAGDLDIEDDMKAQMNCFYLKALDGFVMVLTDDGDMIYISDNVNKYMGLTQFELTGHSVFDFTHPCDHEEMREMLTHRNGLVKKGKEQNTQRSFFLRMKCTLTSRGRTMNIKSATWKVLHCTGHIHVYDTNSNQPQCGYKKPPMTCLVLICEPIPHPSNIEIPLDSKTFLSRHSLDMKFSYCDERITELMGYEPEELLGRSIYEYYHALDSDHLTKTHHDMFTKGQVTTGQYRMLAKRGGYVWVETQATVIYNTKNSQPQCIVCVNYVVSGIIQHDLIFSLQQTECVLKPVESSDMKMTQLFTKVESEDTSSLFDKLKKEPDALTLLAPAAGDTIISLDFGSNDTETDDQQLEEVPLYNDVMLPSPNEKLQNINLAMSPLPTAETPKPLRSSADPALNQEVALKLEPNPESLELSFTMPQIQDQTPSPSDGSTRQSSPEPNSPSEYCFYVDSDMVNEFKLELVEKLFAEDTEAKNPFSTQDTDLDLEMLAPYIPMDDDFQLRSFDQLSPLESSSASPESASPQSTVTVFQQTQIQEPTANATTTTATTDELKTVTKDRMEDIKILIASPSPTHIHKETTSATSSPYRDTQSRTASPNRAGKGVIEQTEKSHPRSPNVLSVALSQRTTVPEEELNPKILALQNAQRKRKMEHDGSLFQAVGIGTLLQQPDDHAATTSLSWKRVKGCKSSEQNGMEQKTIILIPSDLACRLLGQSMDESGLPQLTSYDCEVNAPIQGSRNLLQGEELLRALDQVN
UniProt P42224: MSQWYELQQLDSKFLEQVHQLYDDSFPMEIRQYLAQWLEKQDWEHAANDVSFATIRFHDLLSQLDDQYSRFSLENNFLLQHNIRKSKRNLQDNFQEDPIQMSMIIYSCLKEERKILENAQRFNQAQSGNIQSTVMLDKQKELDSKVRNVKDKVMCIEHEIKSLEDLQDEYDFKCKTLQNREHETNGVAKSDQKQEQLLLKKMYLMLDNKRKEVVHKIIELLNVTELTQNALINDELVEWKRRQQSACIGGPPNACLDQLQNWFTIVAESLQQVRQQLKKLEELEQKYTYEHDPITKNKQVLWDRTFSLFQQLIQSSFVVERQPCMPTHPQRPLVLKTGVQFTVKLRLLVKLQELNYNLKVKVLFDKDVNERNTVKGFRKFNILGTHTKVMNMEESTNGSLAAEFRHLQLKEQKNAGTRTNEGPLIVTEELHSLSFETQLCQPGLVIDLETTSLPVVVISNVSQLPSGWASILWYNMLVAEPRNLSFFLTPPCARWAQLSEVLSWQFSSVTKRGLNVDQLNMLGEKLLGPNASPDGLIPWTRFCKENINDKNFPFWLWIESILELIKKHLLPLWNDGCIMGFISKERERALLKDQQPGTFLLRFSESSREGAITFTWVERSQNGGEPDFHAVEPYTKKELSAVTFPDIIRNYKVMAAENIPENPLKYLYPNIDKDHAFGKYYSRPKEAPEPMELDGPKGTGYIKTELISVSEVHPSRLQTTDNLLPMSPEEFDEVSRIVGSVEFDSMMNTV

Key:
[1] = molecular target: BNIP3 (human (endogenous in KGN)) (UniProt Q12983); test: co-IP; endogenous proteins of granulosa cells; antibodies the same as for Western blotting; procedure according to ref. 8; which partner was precipitated is not told
[2] = molecular target: HIF1α (human (endogenous in KGN)) (UniProt Q16665); test: as above

Substance | binding [1] | binding [2]
HIF1α (from UniProt Q16665 1-826) | binds | 
Signal transducer and activator of transcription 1 (STAT1) (from UniProt P42224 1-750) |  | binds
